Results of single-concentration screens

The chains behind the UniProt entries cited, without tags or fusion partners.
UniProt P9WFT3, whole entry: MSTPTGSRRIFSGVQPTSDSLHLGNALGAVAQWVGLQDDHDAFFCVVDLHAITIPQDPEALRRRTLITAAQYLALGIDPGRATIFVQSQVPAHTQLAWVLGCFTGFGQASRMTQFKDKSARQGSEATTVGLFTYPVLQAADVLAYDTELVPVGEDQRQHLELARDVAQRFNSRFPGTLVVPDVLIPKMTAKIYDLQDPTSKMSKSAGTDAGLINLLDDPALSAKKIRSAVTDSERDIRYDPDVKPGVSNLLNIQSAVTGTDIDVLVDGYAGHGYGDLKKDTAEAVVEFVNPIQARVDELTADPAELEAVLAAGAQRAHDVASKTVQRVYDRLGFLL
UniProt P9WNZ1, whole entry: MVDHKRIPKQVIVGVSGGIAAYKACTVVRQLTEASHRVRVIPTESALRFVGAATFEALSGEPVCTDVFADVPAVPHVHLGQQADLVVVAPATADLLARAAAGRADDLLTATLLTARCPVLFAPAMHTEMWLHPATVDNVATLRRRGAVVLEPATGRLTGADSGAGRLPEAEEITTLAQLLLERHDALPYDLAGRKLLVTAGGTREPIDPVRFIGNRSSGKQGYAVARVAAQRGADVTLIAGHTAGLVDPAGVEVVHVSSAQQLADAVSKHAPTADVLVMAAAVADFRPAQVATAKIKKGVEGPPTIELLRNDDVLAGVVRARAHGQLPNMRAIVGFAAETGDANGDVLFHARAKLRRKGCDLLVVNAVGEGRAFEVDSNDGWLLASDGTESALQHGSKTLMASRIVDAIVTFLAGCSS

Measurements from “University of Dundee, Small-Polar-MMV Screening Library” (2021), ChEMBL document CHEMBL3988442.

Values are the deposited “Percent Effect”, in %.
The controls that fix the scale are not given in the record; negative values are as filed.
This is an unselected part of the compounds tested.
A dash means the value is not listed here; it may have been measured.

MtTrpRS: 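Tryptophan-tRNA ligase, Mycobacterium tuberculosis (UniProt P9WFT3). Enzyme assay of tryptophanyl-tRNA synthetase; the read-out is not stated. Tested at 10 µM. Higher most likely means stronger inhibition; the record gives no direction and few retests gave an IC50. About 65,000 compounds were tested under these conditions; 0.098% (about 64) showed 50% or more at least once.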
CoaBC: 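Enzyme assay of CoaBC with a phosphate dye (Biomol Green) read at 650 nm. Target: Coenzyme A biosynthesis protein CoaBC, Mycobacterium tuberculosis (UniProt P9WNZ1). Concentration: 30 µM. Higher reads as stronger inhibition, judged from the few compounds that gave an IC50. Most strong results did not repeat in a second test. Size under these conditions: about 67,000 compounds, about 40 of them at 50% or above in at least one test.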

SMILES,MtTrpRS,CoaBC
CC(=O)c1c(C)nn(S(=O)(=O)c2ccc(C)cc2)c1C,1.077,-10.06
O=S(=O)(N1CCCCC1)N1CCC(Oc2cnccn2)CC1,-,1.471
CNc1ccnc(N2C[C@@H](C)[C@](O)(C3CCC3)C2)n1,-2.727,-0.7246
COc1ncccc1CN1Cc2nnn(C)c2C(COCC2CC2)C1 (centres undefined),-0.5513,0.6337
CCc1cnc(N2Cc3cnc(C(C)(C)C)nc3C2)nc1,2.031,11.57
O=C(NCCCOc1cccnc1)c1cn(Cc2ccccc2F)nn1,-0.08136,7.559
COCCCN1CCC(C(=O)c2cc(F)ccc2F)CC1,-5.608,7.398
CCn1c(C)nnc1SCCn1cc(-c2nccs2)nn1,0.161,12.77
CCCC1(CO)CCCN(C(=O)CN2CCN(CC)CC2)C1 (centres undefined),1.224,6.65
COc1ccccc1Oc1ncccc1CNC(=O)[C@@H](N)[C@@H](C)O,0.4617,-5.325
Fc1ccc(-c2noc3c2CN(CC2CC2)CC3)cc1F,8.566,5.696
Cc1nc(C)c(CNC(=O)N2CCN(c3ccc(Cl)cn3)CC2)s1,-0.000009,4.669
Cc1noc(C)c1-c1cccc(C2CCN(CC(=O)N(C)C)CC2)n1,-4.818,3.828
COC(=O)C(C)(C)NC(=O)C1CC(=O)N(CC(C)C)C1 (centres undefined),-0.4122,4.685
O=C(COCCOc1ccccc1)NC1CCN(C(=O)C2CC2)CC1,-3.964,-27.34
Cc1cc2c(=O)n3c(nc2s1)CCN(C(=O)c1c(C)noc1C)CC3,-,2.107
Cc1ccc(CNC(=O)Cn2ncc3c2c(C)nn3C)cc1,-0.804,4.172
Cc1ccccc1-c1noc(-c2ccc(N(C)C3CCOCC3)nc2)n1,-5.393,4.545
CN(CC(O)CO)c1nc(-c2cccnc2)nc2c1CCNC2 (centres undefined),0.4817,10.87
O=C(N1CCOCC1)N1CCc2ncnc(NC3CCC3)c2CC1,-3.151,3.529
O=C(c1ccnnc1)N1C[C@@H](OCC2CCOCC2)[C@H]2OCCC[C@H]21,1.63,3.475
Cc1cc(C2CCCN(Cc3cccnc3)C2)n[nH]1 (centres undefined),-3.704,11.68
Cn1cc(CN2CCCC3(CCCN3S(C)(=O)=O)C2)cn1 (centres undefined),3.739,2.445
COCc1nn(C)c2c1CN(Cc1cnn(C)c1)CC2,-6.063,1.018
O=C1CCCN1CCN1CC=C(c2cnn(C3CCS(=O)(=O)C3)c2)CC1 (centres undefined),2.886,0.2439
CCCNC(=O)CN1CCOC(c2ccc(Br)cc2)C1 (centres undefined),-0.2244,-4.069
Cc1oc(C(=O)O)cc1S(=O)(=O)Nc1ccc(Cl)cc1F,-1.655,1.419
CNc1cc(N2CCCC2CNCc2csc(C(C)C)n2)ncn1 (centres undefined),9.984,11.25
O=C(c1ccccc1)N1C[C@H]2CCC[C@@]2(COCc2ccncc2)C1,-1.195,3.579
CCN(CC)C(=O)c1cccc(Cn2nc(C)cc2C)c1,-5.915,4.893
CCOCC(=O)N1CCCC2(CCN(c3ccccc3)C2=O)C1 (centres undefined),-3.924,3.218
CN(Cc1ccc(F)cc1)C(=O)CN1CCCC(Cn2cncn2)C1 (centres undefined),-0.5507,-3.342
Cc1nnc(CN(C)Cc2ccc(C(=O)Nc3sccc3C#N)cc2)o1,-3.271,1.653
O=C(Cn1ccnc1)N1C[C@@H]2CC[C@H](Oc3cccc(F)c3)[C@@H]2C1,-,2.206
CN1C(=O)CC(C(=O)O)C12CCN(Cc1cc(Cl)ccc1F)CC2 (centres undefined),8.038,-1.961
COc1ccc(CNC(C)c2ccc(Cl)c(Cl)c2)c(OC)c1OC (centres undefined),2.1,-10.74
CC(C)=Cc1c(-c2ccccc2)ncn1CCN(C)S(C)(=O)=O,0.5038,1.944
COc1ccc(-c2ccccc2CCN)c(OC)c1,0.2075,4.208
NC(=O)C1(c2cnccn2)CCCN1Cc1cc2ccccc2o1 (centres undefined),-2.09,-5.833
CC1(C)Cc2ccc(C(=O)NC3CCS(=O)(=O)C3)c(O)c2O1 (centres undefined),2.524,0.8906
Cc1nccc(C(=O)N2CCOC(c3nc(C(C)C)n[nH]3)C2)n1 (centres undefined),-5.768,0.7833
COc1ccc(N2CCC(NCc3csc(C(C)C)n3)CC2)cc1,-1.027,-1.683
CC(C)c1nn(CC(=O)N2CCCCC2)c(=O)c2c1cnn2C(C)(C)C,-4.775,1.066
CCN1CCCC(O)(CNCc2ccc3c(c2)OCO3)C1 (centres undefined),-0.892,5.703
Cc1nc(=O)c2ccccc2n1C1=CCN(CC(=O)NC(C)C)CC1,-5.405,-4.566
Cc1cc(C(=O)N2CCOCC2c2nc(C)c[nH]2)nc(O)n1 (centres undefined),-0.6911,-5.782
CC(NC(=O)Nc1cc(F)cc(F)c1)c1nc[nH]n1 (centres undefined),0.08794,-2.575
Cc1cc(NC(=O)CCN2CCCC2Cn2cccn2)no1 (centres undefined),4.78,0.6211